# Library screening results

Amino acid sequences for entries named in this document (tags omitted).
UniProt E9BF75, entry or part of it: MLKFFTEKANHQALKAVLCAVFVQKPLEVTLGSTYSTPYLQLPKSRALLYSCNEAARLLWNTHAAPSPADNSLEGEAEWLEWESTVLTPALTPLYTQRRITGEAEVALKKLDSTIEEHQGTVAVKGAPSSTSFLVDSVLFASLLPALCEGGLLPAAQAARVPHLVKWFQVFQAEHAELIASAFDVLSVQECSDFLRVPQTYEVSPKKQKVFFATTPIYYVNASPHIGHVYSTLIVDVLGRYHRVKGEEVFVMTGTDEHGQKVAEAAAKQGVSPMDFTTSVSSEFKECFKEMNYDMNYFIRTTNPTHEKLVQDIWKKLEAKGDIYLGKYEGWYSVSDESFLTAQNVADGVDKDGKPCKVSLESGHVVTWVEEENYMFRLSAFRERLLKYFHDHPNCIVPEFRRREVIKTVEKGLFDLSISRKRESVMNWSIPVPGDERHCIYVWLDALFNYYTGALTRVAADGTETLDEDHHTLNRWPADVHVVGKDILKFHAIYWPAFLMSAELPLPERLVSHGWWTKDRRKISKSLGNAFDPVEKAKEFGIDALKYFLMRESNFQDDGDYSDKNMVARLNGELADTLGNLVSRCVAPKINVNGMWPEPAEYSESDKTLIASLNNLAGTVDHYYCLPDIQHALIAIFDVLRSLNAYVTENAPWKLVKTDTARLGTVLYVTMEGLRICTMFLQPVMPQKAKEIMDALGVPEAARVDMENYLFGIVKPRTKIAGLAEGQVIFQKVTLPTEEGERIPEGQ

Results are percentages, as filed. The controls that fix the scale are not given in the record; negative values are as filed. The compounds are a random part of those screened. A dash means the value is not listed here; it may have been measured.

LdMetRS: 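Primary screen of methionyl-tRNA synthetase; the read-out is not stated. Target: Methionyl-tRNA synthetase (putative), Leishmania donovani (UniProt E9BF75). The test concentration is not given. The values are filed as inhibition. Of about 68,000 compounds tested this way, about 24 (0.035%) reached 50% or more in at least one test.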
Mtb heat-shock: 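Assay on Mycobacterium tuberculosis, filed only as a heat shock assay from Cornell; the read-out is not stated. The concentration is filed as 10 mM, unlikely as a test dose, so the dose is not known. Higher reads as stronger inhibition (inferred: compounds with an IC50 in retests scored well above the rest). Size under these conditions: about 69,000 compounds, about 930 of them at 50% or above in at least one test.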

compound,LdMetRS,Mtb heat-shock
O=C(c1ccccc1O)N1CCN(C(=O)C2CCC2)CC1,8.657,1.225
CC1CCN(CC2CCCN(C(=O)Nc3ccccn3)C2)CC1 (centres undefined),12.21,3.031
CCN(CC)CCn1cnc(-c2ccccc2)c1-c1ncc[nH]1,11.06,-23.75
N#Cc1ncn(Cc2c(F)cccc2Cl)n1,8.403,-2.259
CC(C(=O)N1CCCC1)N1CCC(c2nccn2Cc2cscn2)CC1 (centres undefined),11.11,-1.161
O=C(O)C(F)(F)F.[H][C@]12CCN(C(=O)C3CCCO3)[C@@]1([H])CCC(=O)N2Cc1cccnc1 (some centres undefined),-,1.298
Cc1ccc(OC2(C(=O)O)CCN(C(=O)c3ccoc3C)CC2)cn1,8.242,10.46
CCc1nc2n(n1)CC(NCc1cc(OC)c3c(c1)OCCO3)CC2 (centres undefined),18.75,1.092
CC(=O)NCC1CN(c2ccc3c(Cl)ccnc3c2F)CCO1 (centres undefined),14.44,1.049
CO[C@H]1CN(Cc2nc3ccccc3n2C)C[C@@]12CCCO2,13.08,7.125
Cc1cnn(CCNCC(=O)N2CCN(c3ccccc3)CC2)c1,9.322,-28.65
Cc1ccc2c(c1)N(C(=O)c1c[nH]c(C)cc1=O)CC(C)O2 (centres undefined),14.04,-29.37
CCN1CC2(CCN(C(=O)C(C)Oc3cccc(Cl)c3)CC2)OC1=O (centres undefined),20.21,10.46
CCCC(=O)NCC(=O)NC(c1ccc(Cl)cc1)C(F)(F)F (centres undefined),9.235,-6.622
NC(=O)CCC(=O)N1CCc2[nH]nc(-c3ccc4c(c3)OCO4)c2C1,11.34,-16.11
COc1cc(C(=O)NCCCO)cc2occc12,-24.31,4.896
CN1CCN(Cc2cccnc2)C2(CCN(c3ncccn3)C2)C1=O (centres undefined),8.065,-
CCN1CCCn2c(nc(CNC(=O)c3ccsc3)cc2=O)C1,19.87,12.78
CCOCC1CN(C(=O)c2ccncn2)Cc2cnn(C)c21 (centres undefined),7.246,-
OCc1ccc(-c2nccn2CCc2nc3c(s2)CCCC3)o1,14.76,11.29
Cc1nc(CN2CCCC(C)(CO)C2)no1 (centres undefined),9.657,4.723
O=C(COCc1nc(-c2ccncc2)no1)N1CCCC1,16.54,0.4267
Cc1ccc2c(c1)c(C)cc(=O)n2CCC(=O)O,-17.03,-1.554
[H][C@@]12CS(=O)(=O)C[C@]1([H])N(C(=O)Cc1ccc(F)c(C)c1)CCN2CC1CC1,-,14.67
CCCSCC(=O)N1C[C@@H](NC(C)=O)[C@H](c2ccc(OC)cc2)C1,6.849,28.1
c1nc2n(c1CN1CCOCC1)CCN(C1CCOC1)CC2 (centres undefined),2.74,-24.24
Cc1cc(C)n(CC2(CNC(=O)C(c3ccccc3F)N(C)C)CC2)n1 (centres undefined),5.013,-19.67
CS(=O)(=O)CCSCc1cc(F)cc2cccnc12,8.58,-23.23
CCc1ccc(CN2CCC(c3ccccc3C(=O)O)C2)nc1 (centres undefined),14.93,5.832
Cc1ccc2c(n1)N(CCn1cccn1)CCN(CC1CC1)C2,12.18,-
c1cc(CN2CCCCC2c2ccc(Nc3cnccn3)nc2)ccn1 (centres undefined),19.06,19.34
O=C(O)C(F)(F)F.[H][C@@]12COC[C@]1(c1nnc(C)o1)CN(Cc1cnn(C)c1)C2,-,2.142
CCC[C@@H]1CN(C(=O)c2conc2-c2ccccc2)C[C@H]1N(C)C,1.781,-2.093
Cc1cc(=O)[nH]c(=O)n1-c1cccc(Cl)c1Cl,10.59,2.257
CC(C#N)CN(C)Cc1nc2c(cnn2C)c(=O)[nH]1 (centres undefined),23.69,4.609
CC(C)(C)CC(=O)NCC(=O)NCC(O)c1ccc2ccccc2c1 (centres undefined),11.98,-0.8935
Cc1cc2cc(CNC3CCN(CC(=O)N(C)C)CC3)oc2cc1C,14.54,-5.999
COC(CNC(=O)CNC(=O)c1ccccc1)c1cccc(Cl)c1 (centres undefined),19.64,-167.1
CCCNC(=O)c1ccc(NC(=O)c2cccc(OCC)c2)cc1,7.609,1.346
Cc1nc(CN2CCC3(CC2)CC(=O)N(C)c2ccccc23)cs1.O=C(O)C(F)(F)F,-,-14.73
CSc1nccc(N2CCC(=O)N(CC3CC3)C(C(C)C)C2)n1 (centres undefined),6.689,-17.57

Repeated from the top, 4 entries:

compound	LdMetRS	Mtb heat-shock
O=C(c1ccccc1O)N1CCN(C(=O)C2CCC2)CC1	8.657	1.225
CC1CCN(CC2CCCN(C(=O)Nc3ccccn3)C2)CC1 (centres undefined)	12.21	3.031
CCN(CC)CCn1cnc(-c2ccccc2)c1-c1ncc[nH]1	11.06	-23.75
N#Cc1ncn(Cc2c(F)cccc2Cl)n1	8.403	-2.259

The values are deposited in ChEMBL (CHEMBL3988442, “University of Dundee, Small-Polar-MMV Screening Library” (2021)).